# Measurements taken from PMC3460623.
# These are yes or no findings as the source states them, for the method shown. In cells and extracts the contact can be indirect. For part of these data: Binding calls can cover weak binding; strength is not graded here.
# B1: Phospholipase C γ1 (PLCγ1), endogenous (enzyme, UniProt P19174 1-1290)
# chain: MAGAASPCANGCGPGAPSDAEVLHLCRSLEVGTVMTLFYSKKSQRPERKTFQVKLETRQITWSRGADKIEGAIDIREIKEIRPGKTSRDFDRYQEDPAFRPDQSHCFVILYGMEFRLKTLSLQATSEDEVNMWIKGLTWLMEDTLQAPTPLQIERWLRKQFYSVDRNREDRISAKDLKNMLSQVNYRVPNMRFLRERLTDLEQRSGDITYGQFAQLYRSLMYSAQKTMDLPFLEASTLRAGERPELCRVSLPEFQQFLLDYQGELWAVDRLQVQEFMLSFLRDPLREIEEPYFFLDEFVTFLFSKENSVWNSQLDAVCPDTMNNPLSHYWISSSHNTYLTGDQFSSESSLEAYARCLRMGCRCIELDCWDGPDGMPVIYHGHTLTTKIKFSDVLHTIKEHAFVASEYPVILSIEDHCSIAQQRNMAQYFKKVLGDTLLTKPVEISADGLPSPNQLKRKILIKHKKLAEGSAYEEVPTSMMYSENDISNSIKNGILYLEDPVNHEWYPHYFVLTSSKIYYSEETSSDQGNEDEEEPKEVSSSTELHSNEKWFHGKLGAGRDGRHIAERLLTEYCIETGAPDGSFLVRESETFVGDYTLSFWRNGKVQHCRIHSRQDAGTPKFFLTDNLVFDSLYDLITHYQQVPLRCNEFEMRLSEPVPQTNAHESKEWYHASLTRAQAEHMLMRVPRDGAFLVRKRNEPNSYAISFRAEGKIKHCRVQQEGQTVMLGNSEFDSLVDLISYYEKHPLYRKMKLRYPINEEALEKIGTAEPDYGALYEGRNPGFYVEANPMPTFKCAVKALFDYKAQREDELTFIKSAIIQNVEKQEGGWWRGDYGGKKQLWFPSNYVEEMVNPVALEPEREHLDENSPLGDLLRGVLDVPACQIAIRPEGKNNRLFVFSISMASVAHWSLDVAADSQEELQDWVKKIREVAQTADARLTEGKIMERRKKIALELSELVVYCRPVPFDEEKIGTERACYRDMSSFPETKAEKYVNKAKGKKFLQYNRLQLSRIYPKGQRLDSSNYDPLPMWICGSQLVALNFQTPDKPMQMNQALFMTGRHCGYVLQPSTMRDEAFDPFDKSSLRGLEPCAISIEVLGARHLPKNGRGIVCPFVEIEVAGAEYDSTKQKTEFVVDNGLNPVWPAKPFHFQISNPEFAFLRFVVYEEDMFSDQNFLAQATFPVKGLKTGYRAVPLKNNYSEDLELASLLIKIDIFPAKENGDLSPFSGTSLRERGSDASGQLFHGRAREGSFESRYQQPFEDFRISQEHLADHFDSRERRAPRRTRVNGDNRL
# Experiments:
# [1] = target: T1, Phospholipase C γ1 (PLCγ1), endogenous (human (endogenous in HEK293 and HEK293T)) (UniProt P19174); assay: co-IP; HEK293T transiently transfected with pFJ-K15P or pFJ-K15M; endogenous PLCγ1 immunoprecipitated; K15 detected with an antibody to the FLAG tag
# T1 sequence: B1 chain
# [2] = target: GST fusion of the cytoplasmic domain of K15-P, YF/ΔSH3 double mutant (Kaposi's Sarcoma Herpesvirus (KSHV, HHV8)); assay: pull-down; GST fusion proteins on glutathione sepharose beads incubated with cleared HEK293T lysates (TBS-T) overnight at 4°C; bound endogenous PLCγ1 detected by Western blot; only the target purified
# [3] = target: GST fusion of the cytoplasmic domain of K15-P, ΔSH3 (Kaposi's Sarcoma Herpesvirus (KSHV, HHV8)); assay: as above
Molecule,binding [1],binding [2],binding [3]
FLAG-tagged K15M (pFJ-K15M),binds,–,–
B1,–,no binding,binds
